{"source": "patent US11434479B2", "about": "“Sialic acid binding polypeptide” (priority 2017, dated 2022)", "note": "At least one structure is not confirmed: it was looked up by name or label, or the drawing left a doubt."}
{"target": "T1, Streptococcus pneumoniae NanB fragment (residues 30-697, SEQ ID NO:4) variant Sia-PS1, Y653F (Streptococcus pneumoniae serotype 4, UniProt Q54727, Y653F)", "T1 construct": "exemplified by a NanB fragment (residues 30-697); made in house; host or cells: pET28a+ based plasmid", "T1 sequence (Q54727 30-692 Y653F)": "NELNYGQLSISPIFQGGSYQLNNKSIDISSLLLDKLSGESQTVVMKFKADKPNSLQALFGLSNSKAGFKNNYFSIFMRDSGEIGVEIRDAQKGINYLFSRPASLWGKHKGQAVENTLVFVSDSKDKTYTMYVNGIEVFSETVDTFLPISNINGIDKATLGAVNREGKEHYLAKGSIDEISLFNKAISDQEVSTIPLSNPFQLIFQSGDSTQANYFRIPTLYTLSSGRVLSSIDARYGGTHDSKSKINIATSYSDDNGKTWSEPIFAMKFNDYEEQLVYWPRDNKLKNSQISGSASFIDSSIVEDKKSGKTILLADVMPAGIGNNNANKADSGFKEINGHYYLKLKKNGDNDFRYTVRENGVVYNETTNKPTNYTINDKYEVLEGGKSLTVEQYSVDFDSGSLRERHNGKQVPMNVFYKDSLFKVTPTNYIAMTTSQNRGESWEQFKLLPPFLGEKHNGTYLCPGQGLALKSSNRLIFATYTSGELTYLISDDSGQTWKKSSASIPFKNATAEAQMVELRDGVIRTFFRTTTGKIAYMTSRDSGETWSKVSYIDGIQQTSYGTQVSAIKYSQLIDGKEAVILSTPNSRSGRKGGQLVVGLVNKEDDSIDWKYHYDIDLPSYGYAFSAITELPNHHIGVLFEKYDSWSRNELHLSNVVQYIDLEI", "test": "Bio-layer Interferometry (BLI) steady-state binding to immobilized oligosaccharides", "settings": "immobilized oligosaccharide, Sia-PS1 as analyte", "source_text": "Lsp=lactose (no sialic acid), 3′SL=α2,3-sialyllactose, 6′SL=α2,6-sialyllactose, GD3=GD3 oligosaccharide that contains a terminal α2,8-linked Neu5Ac residue and an internal α2,3-linked Neu5Ac residue.\nThe pan-specific sialic acid-recognizing affinity reagent of the invention is exemplified by a NanB fragment (residues 30-697; SEQ ID NO:4) with a single mutation. Exemplary mutation sites include Y653, D270, and E541. Exemplary pan-specific affinity reagents, each having a single mutation in the NanB GH domain as noted, are shown in Table 2 and include Sia-PS1 (Y653F), Sia-PS2 (D270A), Sia-PS3 (D270N), Sia-PS4 (E541A), and Sia-PS5 (E541Q). […] They reduce (Sia-PS2 and Sia-PS3) or effectively eliminate (Sia-PS1, Sia-PS4, and Sia-PS5) catalytic activity, and they broaden specificity for sialic acid ligand binding. The pan-specific sialic acid-recognizing affinity reagent we chose for further validation study was Sia-PS1 that contains the Y653F at active site residue Tyr653. This one mutation, which involves removal of a single hydroxyl group, not only eliminates enzyme activity, but astonishingly introduces pan-specific binding into the mutated, inactivated enzyme, despite its distance from the carbohydrate binding module (CBM) domain of the NanB.\nThe flowchart presented in FIG. 2 outlines schematically the methods employed in Example I and II to screen, optimize and select the Lectenz® candidates. The specificity and affinity of potential Lectenz® candidates is evaluated through structurally-guided site-specific and/or site-saturation mutagenesis assays designed to enable the selection of optimal clones. Bio-layer Interferometry (BLI) is used to determine the binding kinetics and affinities for binding to glycans and glycoproteins. Affinity chromatography is performed by immobilizing the Lectenz® candidates in a column format to evaluate their ability to fractionate sialylated- and asialo-glycans and glycoconjugates. […]\nSteady-state binding constants between Lectenz® candidates and sialic acid ligands were measured by BLI.", "units": {"Kd": "nM"}}
{"compound": "CC(=O)N[C@H]1[C@H]([C@H](O)[C@H](O)CO)O[C@@](O[C@H]2[C@@H](O)[C@@H](CO)O[C@@H](O[C@H]3[C@H](O)[C@@H](O)C(O)O[C@@H]3CO)[C@@H]2O)(C(=O)O)C[C@@H]1O", "note": "(stereo partly drawn) [3′SL, α2,3-sialyllactose]", "Kd": 590}
{"compound": "CC(=O)N[C@H]1[C@H]([C@H](O)[C@H](O)CO)O[C@@](OC[C@H]2O[C@@H](O[C@H]3[C@H](O)[C@@H](O)C(O)O[C@@H]3CO)[C@H](O)[C@@H](O)[C@H]2O)(C(=O)O)C[C@@H]1O", "note": "(stereo partly drawn) [6′SL, 6′-sialyllactose (Neu5Acα2,6Galβ1, 4Glcβ, or 6′SL)]", "Kd": 690}
{"compound": "CC(=O)N[C@H]1[C@H]([C@H](O)[C@H](O)CO)O[C@@](O[C@H](CO)[C@@H](O)[C@@H]2O[C@@](O[C@H]3[C@@H](O)[C@@H](CO)O[C@@H](O[C@H]4[C@H](O)[C@@H](O)C(O)O[C@@H]4CO)[C@@H]3O)(C(=O)O)C[C@H](O)[C@H]2NC(C)=O)(C(=O)O)C[C@@H]1O", "note": "(stereo partly drawn) [GD3, Neu5Acα2,8Neu5Acα2,3Galβ1, 4Glcβ]", "Kd": 300}
